Assay results taken from publication PMC4154725.
Results are given in words; binding and its absence hold for the method and conditions named. Binding seen in cells or lysates may run through a third protein. Some entries that bind do so weakly or less than the wild type.

The chains behind the UniProt entries cited, without tags or fusion partners.
UniProt E9Q777: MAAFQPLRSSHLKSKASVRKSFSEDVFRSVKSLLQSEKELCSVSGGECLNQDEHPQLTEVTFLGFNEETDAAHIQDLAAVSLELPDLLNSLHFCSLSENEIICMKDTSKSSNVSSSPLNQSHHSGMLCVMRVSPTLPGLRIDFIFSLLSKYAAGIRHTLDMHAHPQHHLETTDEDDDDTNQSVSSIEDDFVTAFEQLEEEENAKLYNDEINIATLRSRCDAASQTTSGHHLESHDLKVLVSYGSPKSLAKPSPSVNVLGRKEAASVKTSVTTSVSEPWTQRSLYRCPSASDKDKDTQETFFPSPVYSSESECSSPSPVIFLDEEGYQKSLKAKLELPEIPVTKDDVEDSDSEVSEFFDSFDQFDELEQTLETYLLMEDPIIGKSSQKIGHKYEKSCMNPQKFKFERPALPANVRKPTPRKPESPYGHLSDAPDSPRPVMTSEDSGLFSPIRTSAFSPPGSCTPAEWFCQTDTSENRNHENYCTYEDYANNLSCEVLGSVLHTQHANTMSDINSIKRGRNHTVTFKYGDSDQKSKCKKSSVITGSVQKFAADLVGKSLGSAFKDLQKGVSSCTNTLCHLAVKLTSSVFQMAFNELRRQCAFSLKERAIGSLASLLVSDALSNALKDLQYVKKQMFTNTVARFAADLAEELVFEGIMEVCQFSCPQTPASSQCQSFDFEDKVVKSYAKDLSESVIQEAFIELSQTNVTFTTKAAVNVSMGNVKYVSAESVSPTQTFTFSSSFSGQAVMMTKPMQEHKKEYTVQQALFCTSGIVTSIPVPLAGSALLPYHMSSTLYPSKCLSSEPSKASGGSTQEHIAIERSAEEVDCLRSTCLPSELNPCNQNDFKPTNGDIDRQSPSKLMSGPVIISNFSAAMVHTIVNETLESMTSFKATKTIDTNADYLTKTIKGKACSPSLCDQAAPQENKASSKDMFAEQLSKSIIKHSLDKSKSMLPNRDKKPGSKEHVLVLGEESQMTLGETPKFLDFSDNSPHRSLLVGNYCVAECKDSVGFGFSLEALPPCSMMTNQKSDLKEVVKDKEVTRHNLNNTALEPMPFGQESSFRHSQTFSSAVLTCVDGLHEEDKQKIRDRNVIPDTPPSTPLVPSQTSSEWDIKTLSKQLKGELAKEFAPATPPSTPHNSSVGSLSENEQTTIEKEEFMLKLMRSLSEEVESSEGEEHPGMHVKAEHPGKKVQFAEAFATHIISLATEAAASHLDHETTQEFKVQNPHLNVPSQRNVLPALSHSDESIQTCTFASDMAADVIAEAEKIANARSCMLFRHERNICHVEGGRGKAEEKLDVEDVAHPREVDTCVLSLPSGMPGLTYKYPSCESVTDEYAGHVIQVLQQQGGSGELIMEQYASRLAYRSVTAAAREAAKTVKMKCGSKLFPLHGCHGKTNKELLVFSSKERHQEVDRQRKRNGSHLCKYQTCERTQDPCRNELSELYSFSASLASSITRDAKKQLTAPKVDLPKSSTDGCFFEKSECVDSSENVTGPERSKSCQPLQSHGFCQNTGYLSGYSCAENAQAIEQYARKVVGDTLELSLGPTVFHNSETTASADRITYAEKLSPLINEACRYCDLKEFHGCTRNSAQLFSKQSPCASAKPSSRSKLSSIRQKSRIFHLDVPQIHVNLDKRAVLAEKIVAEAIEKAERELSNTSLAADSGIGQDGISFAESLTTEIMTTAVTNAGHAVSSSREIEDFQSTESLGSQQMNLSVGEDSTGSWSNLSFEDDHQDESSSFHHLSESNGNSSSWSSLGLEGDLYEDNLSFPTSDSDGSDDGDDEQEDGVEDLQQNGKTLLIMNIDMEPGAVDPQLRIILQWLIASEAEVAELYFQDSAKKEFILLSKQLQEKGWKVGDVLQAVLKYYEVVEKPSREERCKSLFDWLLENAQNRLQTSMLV
UniProt Q02248: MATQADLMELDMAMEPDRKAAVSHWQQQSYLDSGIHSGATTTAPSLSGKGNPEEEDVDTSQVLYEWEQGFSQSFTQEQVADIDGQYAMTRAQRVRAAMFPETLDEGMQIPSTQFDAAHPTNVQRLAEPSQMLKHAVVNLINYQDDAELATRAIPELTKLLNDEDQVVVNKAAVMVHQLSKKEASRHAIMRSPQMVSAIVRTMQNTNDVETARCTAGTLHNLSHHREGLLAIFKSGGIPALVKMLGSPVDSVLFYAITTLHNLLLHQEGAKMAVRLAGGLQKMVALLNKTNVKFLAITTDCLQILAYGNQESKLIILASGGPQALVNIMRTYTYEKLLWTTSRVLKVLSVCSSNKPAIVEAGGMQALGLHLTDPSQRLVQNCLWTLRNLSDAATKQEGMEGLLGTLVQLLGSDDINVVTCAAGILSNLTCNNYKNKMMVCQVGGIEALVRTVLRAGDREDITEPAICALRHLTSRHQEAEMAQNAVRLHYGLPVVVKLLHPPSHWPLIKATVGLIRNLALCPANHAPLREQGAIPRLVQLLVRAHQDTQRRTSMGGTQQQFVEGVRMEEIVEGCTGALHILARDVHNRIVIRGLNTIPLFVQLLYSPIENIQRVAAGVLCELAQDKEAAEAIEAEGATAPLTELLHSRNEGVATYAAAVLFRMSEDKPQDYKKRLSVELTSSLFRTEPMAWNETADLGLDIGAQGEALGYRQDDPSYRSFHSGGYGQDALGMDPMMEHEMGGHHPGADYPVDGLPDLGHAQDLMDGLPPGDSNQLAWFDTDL

Target: T1, VE-cadherin (mouse (endogenous in MyEnd)) (UniProt P55284)
T1 sequence: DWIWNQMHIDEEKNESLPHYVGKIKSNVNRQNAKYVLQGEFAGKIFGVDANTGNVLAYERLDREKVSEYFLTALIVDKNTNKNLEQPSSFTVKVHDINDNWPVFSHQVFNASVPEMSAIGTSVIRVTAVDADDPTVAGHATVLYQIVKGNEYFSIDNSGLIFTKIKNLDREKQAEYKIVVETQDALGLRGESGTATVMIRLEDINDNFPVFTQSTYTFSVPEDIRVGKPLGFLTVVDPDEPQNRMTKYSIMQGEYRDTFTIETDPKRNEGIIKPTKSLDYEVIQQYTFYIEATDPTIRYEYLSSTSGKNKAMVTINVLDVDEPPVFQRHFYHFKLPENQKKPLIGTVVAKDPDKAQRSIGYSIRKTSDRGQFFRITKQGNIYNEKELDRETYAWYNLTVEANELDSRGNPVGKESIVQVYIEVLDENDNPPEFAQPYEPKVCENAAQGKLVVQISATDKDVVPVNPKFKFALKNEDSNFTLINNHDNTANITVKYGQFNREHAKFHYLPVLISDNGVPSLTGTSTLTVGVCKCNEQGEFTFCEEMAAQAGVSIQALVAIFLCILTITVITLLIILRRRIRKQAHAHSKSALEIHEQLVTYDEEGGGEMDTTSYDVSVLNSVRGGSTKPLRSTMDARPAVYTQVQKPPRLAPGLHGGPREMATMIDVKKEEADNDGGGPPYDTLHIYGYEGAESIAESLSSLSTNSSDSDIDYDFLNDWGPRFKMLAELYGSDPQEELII
Experiment: co-IP; MyEnd lysate (0.5% Nonidet-40, 10 mM HEPES pH 7.9, 1.5 mM MgCl2, 10 mM KCl, 5 mM EDTA); IP with goat anti-VE-cadherin antibody and Protein G Plus-Agarose, 4°C; Western blot; control IP with beads, no antibody

Substance	binding
AKAP220 (from UniProt E9Q777 1-1894)	binds
ß-catenin (from UniProt Q02248 1-781)	binds
